Patent US12180215B2, “Substituted pyrrolo[3,4-d]imidazoles as JAK inhibitors” (HENAN MEDINNO PHARMACEUTICAL TECHNOLOGY CO., LTD., priority 2019, dated 2024)
At least one compound was matched to its structure with a doubt left.

Amino acid sequences for entries named in this document (tags omitted). Residues count along the entry.
UniProt P52333, 781-1124 limits assumed: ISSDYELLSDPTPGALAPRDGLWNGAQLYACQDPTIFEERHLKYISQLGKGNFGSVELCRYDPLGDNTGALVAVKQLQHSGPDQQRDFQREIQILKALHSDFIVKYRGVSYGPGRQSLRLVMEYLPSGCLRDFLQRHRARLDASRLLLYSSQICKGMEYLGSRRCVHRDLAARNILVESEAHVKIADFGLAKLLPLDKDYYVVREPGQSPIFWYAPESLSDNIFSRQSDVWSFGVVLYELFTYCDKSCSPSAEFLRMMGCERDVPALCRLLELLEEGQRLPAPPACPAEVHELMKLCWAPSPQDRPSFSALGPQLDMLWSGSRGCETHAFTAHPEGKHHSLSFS
UniProt O60674, 808-1132 limits assumed: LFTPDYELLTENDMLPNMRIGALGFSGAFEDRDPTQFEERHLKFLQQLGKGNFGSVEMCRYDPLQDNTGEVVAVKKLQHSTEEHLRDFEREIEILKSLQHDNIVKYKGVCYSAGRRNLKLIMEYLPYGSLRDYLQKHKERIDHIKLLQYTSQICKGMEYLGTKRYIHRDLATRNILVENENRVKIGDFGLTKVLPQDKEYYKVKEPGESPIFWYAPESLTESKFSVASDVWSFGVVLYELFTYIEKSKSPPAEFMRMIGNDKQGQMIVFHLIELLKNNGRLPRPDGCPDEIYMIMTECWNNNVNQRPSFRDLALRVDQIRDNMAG
UniProt P23458, 866-1154 limits assumed: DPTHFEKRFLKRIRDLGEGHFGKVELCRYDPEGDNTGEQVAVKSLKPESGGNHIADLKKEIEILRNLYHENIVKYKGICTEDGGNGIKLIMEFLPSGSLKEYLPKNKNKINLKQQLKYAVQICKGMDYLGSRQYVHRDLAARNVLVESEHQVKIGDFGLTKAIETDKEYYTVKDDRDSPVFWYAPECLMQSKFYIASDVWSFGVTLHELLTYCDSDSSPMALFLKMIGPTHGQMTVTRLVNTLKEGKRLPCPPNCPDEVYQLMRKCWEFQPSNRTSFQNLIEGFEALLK
UniProt P29597, 833-1187 limits assumed: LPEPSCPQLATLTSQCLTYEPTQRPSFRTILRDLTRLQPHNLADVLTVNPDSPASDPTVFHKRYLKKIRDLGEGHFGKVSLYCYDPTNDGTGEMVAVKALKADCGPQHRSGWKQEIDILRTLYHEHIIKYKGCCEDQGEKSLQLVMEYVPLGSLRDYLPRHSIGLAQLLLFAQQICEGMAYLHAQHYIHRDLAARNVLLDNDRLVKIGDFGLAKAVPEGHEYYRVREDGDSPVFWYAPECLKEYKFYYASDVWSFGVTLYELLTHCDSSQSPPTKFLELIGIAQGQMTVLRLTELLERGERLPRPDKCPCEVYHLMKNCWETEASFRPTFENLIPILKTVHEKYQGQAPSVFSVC

Tests used:
Details in all cases: slope of the nonlinear IC50 fit
JAK3 = JAK3 (Homo sapiens, UniProt P52333); experiment: JAK3 kinase ADP-Glo assay (Example 59); assay type: biochemical; design: purchased Invitrogen PV3855
JAK2 = JAK2 (Homo sapiens, UniProt O60674); experiment: JAK2 kinase ADP-Glo assay (Example 59)
JAK1 = JAK1 (Homo sapiens, UniProt P23458); experiment: JAK1 kinase ADP-Glo assay (Example 59); assay type: biochemical; design: purchased Invitrogen PV4774
TYK2 = molecular target: T1, TYK2 (Homo sapiens, UniProt P29597); experiment: TYK2 kinase ADP-Glo assay (Example 59); assay type: biochemical
T1 construct: purchased Invitrogen PV4790

SMILES | Hillslope, JAK3 Experiment (JAK3) | Hillslope, JAK2 Experiment (JAK2) | Hillslope, JAK1 Experiment (JAK1) | Hillslope, TYK2 Experiment (TYK2)
CCc1cc(O)c(F)cc1-c1ccc2c(-c3nc4c([nH]3)CN(C(=O)c3cnn(C)c3)C4)n[nH]c2c1 [MDI-202, (2-(6-(2-ethyl-5-fluoro-4-hydroxyphenyl)-1H-indazol-3-yl)-4,6-dihydropyrrolo[3,4-d]imidazol-5(1H)-yl)(1-methyl-1H-pyrazol-4-yl)ketone] | 2.038 | 2.385 | 5.052 | 1.416
CCc1cc(O)c(F)cc1-c1ccc2c(-c3nc4c([nH]3)CN(C(=O)c3cnc(N5CCCCC5)cn3)C4)n[nH]c2c1 [MDI-2, (2-(6-(2-ethyl-5-fluoro-4-hydroxyphenyl)-1H-indazol-3-yl)-4,6-dihydropyrrolo[3,4-d]imidazol-5(1H)-yl)(5-(piperidin-1-yl)pyrazin-2-yl)ketone] | 1.569 | 1.271 | 1.356 | –
